Experimental data from PMC9315428, “Distinctive in vitro ATP Hydrolysis Activity of AtVIPP1, a Chloroplastic ESCRT-III Superfamily Protein in Arabidopsis” (Frontiers in Plant Science, 2022).
These are yes or no findings as the source states them, for the method shown. Some binding calls cover weakened binding; strength is not graded here. Sequences can lack the tags named with a protein.

Columns and labels:
[1] = target: C-terminally His-tagged Arabidopsis VIPP1 (AtVIPP1-His), wild type, without its N-terminal transit peptide (Arabidopsis) (UniProt O80796); experiment: negative staining electron microscopy; purified AtVIPP1-His proteins (3.5-5.5 μg/μL) on carbon-stabilized grids, stained with 2% uranyl acetate or EM stainer, transmission EM; both purified
[2] = target: C-terminally His-tagged Arabidopsis VIPP1 (AtVIPP1-His), wild type, without its N-terminal transit peptide (Arabidopsis) (UniProt O80796); experiment: sucrose density gradient centrifugation; 2 μg recombinant protein on a continuous 0.4-1.6 M sucrose gradient in 50 mM HEPES-NaOH pH 7.5, 50 mM KCl; 85,000 x g, 15 h, 4°C; 25 fractions from top to bottom, immunoblot with anti-VIPP1; both purified

- binding [1]: binds
- binding [2]: binds
B1: C-terminally His-tagged Arabidopsis VIPP1 (AtVIPP1-His), wild type, without its N-terminal transit peptide (protein, UniProt O80796 65-330)
chain: CNGHGATMNLFERFSRVVKSYANALISSFEDPEKILEQTVIEMNSDLTKMRQATAQVLASQKQLQNKYKAAQQSSDDWYKRAQLALAKGDEDLAREALKRRKSFADNATALKTQLDQQKGVVDNLVSNTRLLESKIQEAKAKKDTLLARARTAKTATKVQEMIGTVNTSGALSAFEKMEEKVMAMESEADALTQIGTDELEGKFQMLETSSVDDDLADLKKELSGSSKKGELPPGRSTVAASTRYPFKDSEIENELNELRRKANDF
